# Literature values in patent US10940110B2, “Method and system for the treatment of chronic COPD with nebulized anticholinergic administrations” (Sunovion Respiratory Development Inc., priority 2008, dated 2021).
# Read-outs that look alike come from different tables or passages of the source. At least one structure is not confirmed: it was looked up by name or label, or the drawing left a doubt.
# Key:
# asthma [1] = conditions: inhaled; cited from earlier work
# [2] = system: mild-to-moderate asthmatic volunteers; conditions: nebulized, all dose levels (0.5, 1.0, 2.0 mg), methacholine challenge; cited from earlier work
# asthma [3] = conditions: metered-dose aerosol; cited from earlier work
# [4] = system: mild-to-moderate asthmatic patients; conditions: nebulized single doses 0.5, 1.0 and 2.0 mg, cited from earlier work
smiles,measurement,setting,value
"C[N+]1(C)CCC(OC(=O)C(O)(c2ccccc2)C2CCCC2)C1 (centres unmarked) [glycopyrrolate, 3-[(cyclopentylhydroxyphenylacetyl)oxy]-1,1-dimethylpyrrolidinium]",duration of effective treatment,asthma [1],up to 12 hours
same,duration of clinically meaningful bronchoprotective effect,[2],up to 30 h
same,period of bronchodilation after a single administration,asthma [3],12 h
same,"mean response in FEV1, change from pre-dose levels",[4]; 2 hours post-dose,> 10%
same,"mean response in FEV1, change from pre-dose levels",[4]; from 12 h through 30 h,approximately 5%
